Assay results as given in PMC2892021.

How the values were obtained:
Assay in all cases: pull-down; GST-DH, GST-PH and GST-DHPH as bait; each SH3 domain individually and all five SH3 domains together, in trans
[1] = molecular target: T1, GST-DH (intersectin-1L DH domain fused to GST) (mouse) (UniProt Q9Z0R4)
T1 sequence: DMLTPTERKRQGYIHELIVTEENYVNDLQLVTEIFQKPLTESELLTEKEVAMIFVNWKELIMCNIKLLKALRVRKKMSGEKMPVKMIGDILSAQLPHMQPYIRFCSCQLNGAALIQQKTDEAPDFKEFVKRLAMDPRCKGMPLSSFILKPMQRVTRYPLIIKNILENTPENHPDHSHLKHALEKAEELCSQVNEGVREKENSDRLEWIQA

[2] = molecular target: T2, GST-DHPH (intersectin-1L DH-PH domain fragment fused to GST) (mouse) (UniProt Q9Z0R4)
T2 sequence: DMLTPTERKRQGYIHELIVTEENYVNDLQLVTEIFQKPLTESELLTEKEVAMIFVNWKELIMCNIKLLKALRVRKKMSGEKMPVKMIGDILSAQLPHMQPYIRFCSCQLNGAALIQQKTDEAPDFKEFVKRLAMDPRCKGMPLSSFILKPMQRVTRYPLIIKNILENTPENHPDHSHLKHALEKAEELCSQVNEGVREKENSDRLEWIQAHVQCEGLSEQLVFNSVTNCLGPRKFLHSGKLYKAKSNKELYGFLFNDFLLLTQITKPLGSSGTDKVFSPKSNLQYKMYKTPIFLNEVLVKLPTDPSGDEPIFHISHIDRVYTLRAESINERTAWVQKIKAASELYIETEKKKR

[3] = molecular target: T3, GST-PH (intersectin-1L PH domain fused to GST) (mouse) (UniProt Q9Z0R4)
T3 sequence: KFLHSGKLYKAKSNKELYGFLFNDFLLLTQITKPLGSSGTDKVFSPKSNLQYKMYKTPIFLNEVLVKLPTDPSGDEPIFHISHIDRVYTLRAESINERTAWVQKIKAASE

Row | binding [1] | binding [2] | binding [3] | Substance
1 | no binding | – | no binding | intersectin-1L SH3(ABCDE) fragment (all five SH3 domains together) (mouse) (domain or fragment)
2 | no binding | no binding | no binding | intersectin-1L SH3(B) domain (mouse) (domain or fragment)

The next lines start with the substance.

Row | Substance | binding [1] | binding [2] | binding [3]
3 | intersectin-1L SH3(A) domain (mouse) (domain or fragment) | no binding | no binding | no binding
4 | intersectin-1L SH3(C) domain (mouse) (domain or fragment) | no binding | no binding | no binding
5 | intersectin-1L SH3(D) domain (mouse) (domain or fragment) | no binding | no binding | no binding
6 | intersectin-1L SH3(E) domain (mouse) (domain or fragment) | no binding | – | no binding

Results are given in words; binding and its absence hold for the method and conditions named. In cells and extracts the contact can be indirect. Where a sequence is shown, tags or fusion partners need not be part of it.
